Laboratory results taken from PubChem BioAssay AID504582 (Broad Institute, 2011).
About 2,300 (0.68%) of roughly 340,000 compounds were called active. Inconclusive means that the source gave no clear call. Such entries were picked first, then a sample of the others. Cut-off read from the data, not from the text of the source: active = growth rescue above about 28% (passing the limit was not always enough); inconclusive = no clear call, values can overlap the other calls.

Assay: rescue of yeast from PfHsp40 toxicity, primary screen, S. cerevisiae, ATP luminescence (AID 504582);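 note: yeast W303a lacking pdr1 and pdr3 grown in galactose medium; growth measured after three days at 30 °C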
Conditions: S. cerevisiae expressing PfHsp40, growth rescue, at 12.5 µM, active compounds read high

Structure (SMILES) | growth rescue
CNC(=O)CN(c1cc(OCCOC)c(Cl)cc1Cl)S(=O)(=O)c1ccc(OC)cc1 | inconclusive: 34%
CCOC(=O)C1=C(C)OC(N)=C(C#N)C1c1ccsc1 (configuration not stated) | inconclusive: 29.6%
CN(Cc1ccccc1F)c1ncnc2sccc12 | inactive: -0.366%
COc1ccc(Cn2c(SCC#N)nc3ccc(N4CCOCC4)cc3c2=O)cc1 | inconclusive: 27.2%
Cc1c(Cl)cccc1NC(=S)NCCc1ccc(C(F)(F)F)cc1 | inconclusive: 75.7%
O=C(Nc1ccccc1)C1=C[C@H](c2csc3ccccc23)C[C@H](OCCCCO)O1 | inconclusive: 30.5%
Cc1ccc(NC2CCCN(C(=O)CCc3ccncc3)C2)cc1C (configuration not stated) | inactive: 2.14%
C[C@H](NC(=O)C1CCN(S(=O)(=O)c2ccccc2)CC1)C(=O)NCc1ccc(Cl)cc1Cl | inconclusive: 78.2%
CCOc1ccc(/C(O)=C2/C(=O)C(=O)N(CCCn3ccnc3)C2c2cccs2)cc1Cl (configuration not stated) | inconclusive: 33.1%
CCCCNc1c(-c2ccc(SC3CCCCC3)cc2)nc2ccccn12 | inactive: 18.7%
CC12CCC(=O)C=C1CCC1C2CCC2(C)C(O)CCC12 (configuration not stated) | inactive: -0.825%
CC(=O)NC(=S)NNC(=O)C(c1ccccc1)c1ccccc1 | active: 62.4%
CCCCCCCCCCCCn1ccc(=N)cc1 | active: 174%
O=C(NC1CCCCCC1)c1c(O)nc2sccn2c1=O | inconclusive: 181%
O=c1[nH]c(=O)n(C2CCCCC2)c(O)c1/C=C/C=Nc1ccccc1 | inactive: 1.13%
O=C(O)/C=C/C(=O)Nc1ccc(OC(F)(F)F)cc1Br | inactive: -0.098%
O=c1oc2ccccc2c(O)c1Cc1cc(Cl)c2cccnc2c1O | inconclusive: 208%
Cc1ccsc1C(=O)OCC(=O)N1CC(=O)Nc2ccccc21 | inconclusive: 60.1%
O=C(CSc1nc2c(c(C(F)(F)F)n1)CCc1ccccc1-2)NCc1ccco1 | inconclusive: 26.7%

Structure (SMILES) | growth rescue
CCOc1ccccc1NC(=O)/C(C#N)=C/c1cccnc1 | inactive: -1.18%
Cc1cc(C)c2nc(NNC(=O)c3ccc(S(=O)(=O)N4CC(C)CC(C)C4)cc3)sc2c1 (configuration not stated) | inconclusive: 193%
CCS(=O)(=O)N1CCC(NC(C)=O)(c2ccccc2)CC1 | inconclusive: 61.6%
CCOC(=O)/C(C#N)=C/N=c1ccc(C)cn1C | inactive: -0.766%
COC(=O)Nc1ccc(S(=O)(=O)N2CCCCC2C(=O)NCc2ccco2)cc1 (configuration not stated) | inactive: 2.28%
CC(=O)Nc1ccc(Nc2cc(C)nc3c(-c4ccc(Cl)cc4)cnn23)cc1 | inconclusive: 187%
COC(=O)c1cc2ccccc2c(-c2c(O)ccc3ccccc23)c1O | inconclusive: 219%
Clc1ccc(N2CCN(c3ncnc4c3oc3ccccc34)CC2)cc1 | inactive: -0.178%
COc1cccc(NC(=O)c2ccccc2-c2nc(-c3ccccc3)no2)c1 | inconclusive: 49.8%
Cc1cc(C)cc(OCCCOc2cccc3cccnc23)c1 | inconclusive: 73.6%
Cc1ccc(N/N=C(\C#N)C(N)=S)cc1C | inconclusive: 25.7%
O=C(NCc1ccccn1)c1nc(Cn2ccc([N+](=O)[O-])n2)no1 | inconclusive: 25.2%
Clc1ccc(CCC(Cn2ccnc2)Sc2c(Cl)cccc2Cl)cc1 (configuration not stated) | active: 120%
C[C@@]12C(=O)N(Cc3ccccc3)CC(=O)N1[C@H]1c3cc(Cl)ccc3OC[C@@H]1[C@@H]2c1ccccc1 | inconclusive: 75.5%
CCOC(=O)C1(Cc2ccc(OC)cc2)CCN(C(=O)CN2CCOC2=O)CC1 | inconclusive: 52.2%
O=C(/C=C/c1ccccc1)NCCS(=O)(=O)N1CCN(c2ccccc2)CC1 | inconclusive: 64%
O=[N+]([O-])c1cc(C(F)(F)F)ccc1NC1CCN(Cc2ccccc2)C1 (configuration not stated) | inactive: 0.258%
COC(=O)C1=C(c2ccc(OCc3ccccc3)cc2)C[C@@H]2CC[C@H]1N2C(=O)NCCN1CCOCC1 | inconclusive: 42.9%
O=C(/C=C/c1ccc(F)cc1)N1CC[C@@]2(O)CCCC[C@H]2C1 | inconclusive: 51.8%

Structure (SMILES) | growth rescue
CCN(CCN1CCCC1)C(=O)c1cc(COc2ccccc2SC)on1 | inconclusive: 40.5%
C=CCn1c(=NC(=O)c2sc3ccccc3c2Cl)sc2cc(S(N)(=O)=O)ccc21 | inconclusive: 32.8%
Cc1ccc(-c2[nH]c3cc(C(=O)NCCCn4ccnc4)ccc3c(=O)c2O)cc1 | inconclusive: 25.9%
O=C(N/N=C/c1ccc(O)cc1)c1cncc(Br)c1 | inconclusive: 81.3%
COc1ccc(S(=O)(=O)n2nc(OC(C)=O)cc2N(C(C)=O)C(C)=O)cc1 | inconclusive: 33.6%
O=C(OC1CCCCC1)c1ccc(NC(=O)c2ccco2)cc1 | inconclusive: 31.6%
C=CCN(c1ccc(C(=O)Nc2ccc(C)cc2)cc1)S(C)(=O)=O | inactive: -1.42%
FC(F)(F)c1cc(-c2ccco2)nc(N2CCN(c3ccccc3)CC2)n1 | inactive: 1.19%
N#Cc1nc(COc2ccccc2F)oc1NCCc1ccccc1 | inconclusive: 28.6%
O=S(=O)(Nc1ccccc1F)c1ccc2nsnc2c1 | inconclusive: 25.2%
CCOc1ccc(Nc2nc(N)c3ccccc3n2)cc1 | inactive: -6.53%
CC(C)CS(=O)(=O)C1=NN2C(=N)/C(=C\c3ccc(OC(=O)c4ccco4)cc3)C(=O)N=C2S1 | inactive: 0.602%
COc1ccc(C(C)N2CC34C=CC(O3)C(C(=O)O)C4C2=O)cc1 (configuration not stated) | inconclusive: 46%
C/C(=N\NC(=O)c1ccc(O)cc1)c1cccc(NC(=O)c2ccc(Cl)cc2)c1 | active: 44.3%
CCc1ccc(C(=O)OCC(=O)NC2CCCC2)cc1 | inactive: -0.259%
O=C1N=C(N2C=CC(=C3C=CNC=C3)C=C2)/C(=C/N=NC(=O)c2ccccc2)S1 | inactive: -0.998%
COc1ccc(S(=O)(=O)N2CCCN(CC(=O)C(C)(C)C)CC2)cc1 | inconclusive: 29.6%
CCC(=O)Nc1nnc(SCC(=O)N2c3ccccc3CC2C)s1 (configuration not stated) | inactive: 1.32%
COc1ccc(/C=C2\CN(Cc3ccccc3)C/C(=C\c3ccc(OC)cc3OC)C2=O)c(OC)c1 | inconclusive: 38.5%
